Data published in publication PMC8325298.
Results are given in words; binding and its absence hold for the method and conditions named. Binding seen in cells or lysates may run through a third protein. Some binding calls cover weakened binding; strength is not graded here. Values belong to the molecule of their own block, whether it stands above or below them.

By UniProt entry, the sequences of proteins in these tests, tags left out.
UniProt O95782: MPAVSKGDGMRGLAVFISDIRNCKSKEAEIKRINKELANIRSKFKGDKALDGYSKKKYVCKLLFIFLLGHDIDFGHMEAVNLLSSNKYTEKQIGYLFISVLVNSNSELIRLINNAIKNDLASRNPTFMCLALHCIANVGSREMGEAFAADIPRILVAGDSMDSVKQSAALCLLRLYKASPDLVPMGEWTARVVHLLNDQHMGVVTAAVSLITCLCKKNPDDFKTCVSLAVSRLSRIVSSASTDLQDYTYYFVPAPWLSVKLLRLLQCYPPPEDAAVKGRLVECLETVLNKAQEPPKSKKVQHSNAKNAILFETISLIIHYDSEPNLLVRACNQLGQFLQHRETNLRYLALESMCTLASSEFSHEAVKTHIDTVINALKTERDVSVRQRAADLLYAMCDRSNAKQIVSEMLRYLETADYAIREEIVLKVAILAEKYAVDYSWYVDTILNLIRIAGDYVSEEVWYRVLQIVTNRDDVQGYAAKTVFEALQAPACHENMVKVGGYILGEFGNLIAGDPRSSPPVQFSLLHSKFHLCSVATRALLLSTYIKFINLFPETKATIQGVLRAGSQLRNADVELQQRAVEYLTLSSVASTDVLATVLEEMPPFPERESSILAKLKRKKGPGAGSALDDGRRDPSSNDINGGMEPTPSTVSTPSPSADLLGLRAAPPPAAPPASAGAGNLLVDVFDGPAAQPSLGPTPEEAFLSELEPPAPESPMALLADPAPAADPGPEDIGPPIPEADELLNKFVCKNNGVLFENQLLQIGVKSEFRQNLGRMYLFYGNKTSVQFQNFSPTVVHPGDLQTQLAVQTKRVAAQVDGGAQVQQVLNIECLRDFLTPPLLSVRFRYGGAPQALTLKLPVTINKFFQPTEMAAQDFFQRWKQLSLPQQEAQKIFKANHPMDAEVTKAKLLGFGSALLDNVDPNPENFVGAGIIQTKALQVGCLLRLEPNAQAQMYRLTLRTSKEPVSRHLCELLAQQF

Legend:
[1] = target: T1, MYO1F, expressed from a plasmid in HEK293T cells (UniProt O00160); assay: co-IP; HEK293T cells transfected with plasmids; lysates immunoprecipitated with anti-Flag antibody, immunoblot
T1 sequence: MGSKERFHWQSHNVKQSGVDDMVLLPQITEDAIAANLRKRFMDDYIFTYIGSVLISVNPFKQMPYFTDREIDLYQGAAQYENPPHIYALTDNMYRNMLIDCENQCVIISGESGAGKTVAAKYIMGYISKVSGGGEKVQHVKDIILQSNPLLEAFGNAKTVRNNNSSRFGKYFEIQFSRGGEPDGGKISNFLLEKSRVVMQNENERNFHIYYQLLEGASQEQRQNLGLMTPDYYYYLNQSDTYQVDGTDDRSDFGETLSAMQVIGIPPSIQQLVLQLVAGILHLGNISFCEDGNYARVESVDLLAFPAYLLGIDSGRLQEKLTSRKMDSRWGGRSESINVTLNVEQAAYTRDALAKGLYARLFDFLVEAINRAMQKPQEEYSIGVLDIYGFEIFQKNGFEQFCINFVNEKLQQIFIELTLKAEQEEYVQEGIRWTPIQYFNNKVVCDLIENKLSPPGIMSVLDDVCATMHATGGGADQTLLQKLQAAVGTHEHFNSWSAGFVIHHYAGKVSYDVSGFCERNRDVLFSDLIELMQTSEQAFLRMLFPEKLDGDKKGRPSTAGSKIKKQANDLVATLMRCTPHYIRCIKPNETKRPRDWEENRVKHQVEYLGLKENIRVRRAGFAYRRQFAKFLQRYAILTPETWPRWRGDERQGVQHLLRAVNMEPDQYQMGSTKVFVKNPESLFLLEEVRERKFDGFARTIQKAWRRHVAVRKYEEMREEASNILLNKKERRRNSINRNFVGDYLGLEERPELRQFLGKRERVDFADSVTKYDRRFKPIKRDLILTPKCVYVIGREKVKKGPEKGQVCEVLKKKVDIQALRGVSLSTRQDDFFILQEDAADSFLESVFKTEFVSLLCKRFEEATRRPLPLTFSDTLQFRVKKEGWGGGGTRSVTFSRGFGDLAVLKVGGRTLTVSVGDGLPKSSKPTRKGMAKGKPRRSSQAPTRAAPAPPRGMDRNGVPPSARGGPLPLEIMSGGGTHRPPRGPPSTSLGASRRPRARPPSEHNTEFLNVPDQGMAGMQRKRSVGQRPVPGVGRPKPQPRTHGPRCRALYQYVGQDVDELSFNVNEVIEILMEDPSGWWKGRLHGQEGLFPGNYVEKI

[2] = target: AP2A1, endogenous in THP-1 cells (human (endogenous in THP-1)) (UniProt O95782); assay: co-IP; endogenous proteins; WT control THP-1 cells (and MYO1F-KO cells for comparison) stimulated with HKCA (MOI = 2); lysates immunoprecipitated with anti-AP2A1 or anti-MYO1F antibody, Western blot

binding [1]: binds
Molecule: AP2A1, expressed from a plasmid in HEK293T cells (from UniProt O95782 1-977)

binding [2]: binds
B1: MYO1F, endogenous in THP-1 cells (protein, UniProt O00160 1-1098)
chain: T1 sequence
